Reference: PMC3266300
Results are given in words; binding and its absence hold for the method and conditions named. Binding seen in cells or lysates may run through a third protein. These calls come from enrichment with a bait or labelling near it, and not all partners need be listed.

Chains of the proteins cited; added tags and fusions are not shown. Residues count along the entry.
Str-GFP-NM1-(Q123.T) (Q9WTI7, residues 731-1063): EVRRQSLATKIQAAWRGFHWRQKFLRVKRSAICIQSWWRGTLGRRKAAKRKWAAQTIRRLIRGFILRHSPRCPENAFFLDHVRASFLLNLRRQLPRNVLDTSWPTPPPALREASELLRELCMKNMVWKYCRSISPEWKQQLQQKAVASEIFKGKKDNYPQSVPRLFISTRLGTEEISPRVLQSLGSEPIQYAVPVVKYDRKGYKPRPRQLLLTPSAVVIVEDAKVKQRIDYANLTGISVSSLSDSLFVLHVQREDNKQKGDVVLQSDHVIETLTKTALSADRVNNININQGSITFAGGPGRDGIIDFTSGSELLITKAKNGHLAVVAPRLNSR
Str-IQ12-His (Q9WTI7, residues 731-789): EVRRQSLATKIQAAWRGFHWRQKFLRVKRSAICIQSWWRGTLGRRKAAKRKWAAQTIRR
UniProt O00410: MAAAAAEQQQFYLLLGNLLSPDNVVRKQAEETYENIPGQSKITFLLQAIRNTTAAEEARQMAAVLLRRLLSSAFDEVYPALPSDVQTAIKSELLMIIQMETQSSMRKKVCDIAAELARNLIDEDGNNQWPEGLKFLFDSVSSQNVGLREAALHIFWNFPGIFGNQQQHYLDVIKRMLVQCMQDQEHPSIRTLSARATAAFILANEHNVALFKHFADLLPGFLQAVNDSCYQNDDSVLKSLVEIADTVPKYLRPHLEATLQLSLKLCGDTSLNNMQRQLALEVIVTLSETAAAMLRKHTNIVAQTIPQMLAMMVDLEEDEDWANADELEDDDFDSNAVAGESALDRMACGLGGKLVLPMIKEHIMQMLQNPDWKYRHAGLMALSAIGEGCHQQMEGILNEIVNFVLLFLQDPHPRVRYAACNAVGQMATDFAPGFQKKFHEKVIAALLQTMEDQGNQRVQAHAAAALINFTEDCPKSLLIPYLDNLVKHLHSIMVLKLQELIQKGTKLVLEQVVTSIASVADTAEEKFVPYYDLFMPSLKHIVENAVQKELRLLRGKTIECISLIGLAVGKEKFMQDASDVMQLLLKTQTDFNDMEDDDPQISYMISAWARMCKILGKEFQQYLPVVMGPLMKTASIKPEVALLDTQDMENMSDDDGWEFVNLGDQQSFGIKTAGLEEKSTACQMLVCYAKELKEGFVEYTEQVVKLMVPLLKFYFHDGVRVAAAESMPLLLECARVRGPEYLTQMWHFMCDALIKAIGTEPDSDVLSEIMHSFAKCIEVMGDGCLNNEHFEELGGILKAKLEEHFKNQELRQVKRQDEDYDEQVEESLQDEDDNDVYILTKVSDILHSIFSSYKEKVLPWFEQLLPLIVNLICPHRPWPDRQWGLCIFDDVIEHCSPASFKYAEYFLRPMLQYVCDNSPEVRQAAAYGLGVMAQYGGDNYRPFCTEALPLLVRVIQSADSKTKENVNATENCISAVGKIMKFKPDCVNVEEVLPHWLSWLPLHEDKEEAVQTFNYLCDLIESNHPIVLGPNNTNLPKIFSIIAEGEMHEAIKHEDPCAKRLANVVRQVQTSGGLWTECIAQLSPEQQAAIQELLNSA
UniProt Q14974: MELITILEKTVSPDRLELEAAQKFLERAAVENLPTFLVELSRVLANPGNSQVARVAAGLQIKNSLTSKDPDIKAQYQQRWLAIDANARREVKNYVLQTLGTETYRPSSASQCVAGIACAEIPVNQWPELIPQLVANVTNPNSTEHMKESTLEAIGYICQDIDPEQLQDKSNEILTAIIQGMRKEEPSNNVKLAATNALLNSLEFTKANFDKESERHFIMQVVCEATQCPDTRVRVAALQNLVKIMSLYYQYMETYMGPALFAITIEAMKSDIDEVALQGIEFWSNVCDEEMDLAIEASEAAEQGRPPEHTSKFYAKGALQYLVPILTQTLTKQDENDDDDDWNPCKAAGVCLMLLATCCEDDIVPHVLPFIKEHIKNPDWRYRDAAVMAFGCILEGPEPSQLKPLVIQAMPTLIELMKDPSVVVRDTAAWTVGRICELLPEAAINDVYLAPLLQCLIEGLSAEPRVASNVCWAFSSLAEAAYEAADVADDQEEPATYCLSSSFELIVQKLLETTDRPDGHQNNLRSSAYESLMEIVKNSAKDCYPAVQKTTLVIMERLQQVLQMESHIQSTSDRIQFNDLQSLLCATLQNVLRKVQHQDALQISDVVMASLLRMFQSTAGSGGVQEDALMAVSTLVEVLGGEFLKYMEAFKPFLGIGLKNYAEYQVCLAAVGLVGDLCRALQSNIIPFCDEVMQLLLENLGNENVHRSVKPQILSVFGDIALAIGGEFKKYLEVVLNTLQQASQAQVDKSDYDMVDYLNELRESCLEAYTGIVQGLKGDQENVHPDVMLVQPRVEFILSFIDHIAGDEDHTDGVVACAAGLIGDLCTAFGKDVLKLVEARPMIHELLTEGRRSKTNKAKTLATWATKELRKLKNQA
UniProt P08238: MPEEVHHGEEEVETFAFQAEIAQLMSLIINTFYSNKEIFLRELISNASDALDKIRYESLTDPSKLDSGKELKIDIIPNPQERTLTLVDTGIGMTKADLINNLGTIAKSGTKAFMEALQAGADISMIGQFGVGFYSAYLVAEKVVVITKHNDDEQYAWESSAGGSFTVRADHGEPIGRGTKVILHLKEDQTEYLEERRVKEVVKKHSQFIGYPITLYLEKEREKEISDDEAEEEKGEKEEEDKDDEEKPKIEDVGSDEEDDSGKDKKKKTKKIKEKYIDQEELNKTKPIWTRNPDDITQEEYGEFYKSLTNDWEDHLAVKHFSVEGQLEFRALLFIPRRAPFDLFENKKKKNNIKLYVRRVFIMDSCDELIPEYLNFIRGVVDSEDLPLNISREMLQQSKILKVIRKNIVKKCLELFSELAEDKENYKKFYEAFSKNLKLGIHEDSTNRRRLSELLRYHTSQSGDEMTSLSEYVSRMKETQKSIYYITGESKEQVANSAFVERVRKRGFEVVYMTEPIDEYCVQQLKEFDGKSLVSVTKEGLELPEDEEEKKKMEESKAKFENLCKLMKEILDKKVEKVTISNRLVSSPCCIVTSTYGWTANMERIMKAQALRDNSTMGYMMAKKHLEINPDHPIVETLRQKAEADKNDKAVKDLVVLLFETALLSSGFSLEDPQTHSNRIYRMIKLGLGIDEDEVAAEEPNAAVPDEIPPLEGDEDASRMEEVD

Tests used:
[1] = target: Str-IQ12-His (mouse) (UniProt Q9WTI7); assay: affinity purification with mass spectrometry; purified Str-IQ12-His added to digitonin extract of suspension HeLa cells (2 mg/ml; 50 mM HEPES pH 7.4, 150 mM NaCl, 75 mM potassium acetate, 5 mM magnesium acetate, 1 mM DTT), 3 h, captured on StrepTactin beads, eluted with 2 mM biotin; SimplyBlue-stained bands identified by MALDI peptide mass fingerprinting; only the target purified
[2] = target: Str-GFP-NM1-(Q123.T) (mouse) (UniProt Q9WTI7); assay: affinity purification with mass spectrometry; Str-GFP-NM1-(Q123.T) or Str-GFP expressed in HEK293T; digitonin extract (50 mM HEPES pH 7.4, 150 mM potassium acetate, 5 mM magnesium acetate, 1 mM DTT, 1 mg/ml digitonin), 4 h with StrepTactin resin, biotin elution; stained bands identified by mass spectrometry

| binding [1] | binding [2] | Substance |
| --- | --- | --- |
| binds | binds | importin 5 (from UniProt O00410 1-1097) |
| – | binds | importin-β1 (from UniProt Q14974 1-876) |
| binds | binds | Heat shock protein 90 beta (from UniProt P08238 1-724) |
